We go through seven substances from patent US12616761B2 (PROVINCIAL HEALTH SERVICES AUTHORITY, priority 2020, dated 2026).

A short description of the series: general procedure: Fmoc solid-phase peptide synthesis; Fmoc-Rink Amide MBHA resin (CEM, 0.56 mmol/g); DIC/Oxyma (4/8/4 equiv. Fmoc-AA-OH/DIC/Oxyma); cyclization DIC/HOBt. The note with it: late stage modification step.

“cyclo[Lys(CysAcid-DOTA)-(4-NH2)Phe-Lys(iPr)-D-Arg-2Nal-Gly-D-Glu]-Lys(iPr)”: the step yield was 77% yield.

In the case of “cyclo[Lys(CysAcid-DOTA-Ga)-(3-I)Tyr-Lys(iPr)-D-Arg-2Nal-D-Ala-D-Glu]-Lys(iPr)”, the step yield was 97% yield.

As for “cyclo[Phe-Tyr-Lys(iPr)-D-Arg-2Nal-D-Asn-D-Glu]-Lys(iPr)-Lys(CysAcid2-DOTA-Ga)”, the step yield is recorded as 86% yield.

As for “cyclo[Phe-Tyr-Lys(iPr)-D-Arg-2Nal-D-Asn-D-Gu]-Lys(iPr)-Lys(CysAcid-DOTA)”, the step yield was 74% yield.

On to “cyclo[Lys(D-Arg-DOTA-Ga)-Tyr-Lys(iPr)-D-Arg-2Nal-D-Ala-D-Glu]-Lys(iPr)”, for which the step yield came to 73% yield.

As for “cyclo[Lys(CysAcid-DOTA-Ga)-Tyr-Lys(iPr)-D-Arg-2Nal-D-Ala-D-Glu]-Lys(iPr)”, the step yield is reported as 71% yield.

Take “cyclo[Lys(CysAcid-DOTA)-Tyr-Lys(iPr)-D-Arg-2Nal-D-Asn-D-Glu]-Lys(iPr)”: the step yield is reported as 80% yield.
